Experimental data published in the supplement of paper PMC3334620.
Whole data set: some 33,000 sequences, median “E-score (-0.5 to 0.5)” near -0.0034, cut for the highest 2% near 0.25. This is one part of the list.

molecular target: T1, Yap3 (UniProt P38749); experiment: PBM E-score (8-mer binding enrichment) (E-score (-0.5 to 0.5)); higher = stronger / more preferred TF binding; details: protein concentration: 100 nM; construct: GST-full length
T1 sequence: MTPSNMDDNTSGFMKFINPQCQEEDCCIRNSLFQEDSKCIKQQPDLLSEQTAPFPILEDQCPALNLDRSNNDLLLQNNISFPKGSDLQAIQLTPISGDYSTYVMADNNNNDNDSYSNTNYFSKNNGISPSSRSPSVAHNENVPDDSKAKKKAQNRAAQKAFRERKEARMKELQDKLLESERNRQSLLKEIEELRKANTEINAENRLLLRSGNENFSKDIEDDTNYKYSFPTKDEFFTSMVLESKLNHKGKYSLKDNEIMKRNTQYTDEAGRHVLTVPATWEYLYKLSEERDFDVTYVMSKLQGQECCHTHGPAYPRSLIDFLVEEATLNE
Summary of the method: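 Detection of bound protein used fluorescent anti-GST, with scans normalised by masliner. The proteins were GST-tagged yeast transcription factors applied at about 100-200 nM to universal all-10-mer Agilent arrays made double-stranded by primer extension. Each ungapped eight-base word, pooled with its reverse complement, was scored with an E-score from the Universal PBM Analysis Suite.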

| Sequence | PBM E-score |
| --- | --- |
| CTGGTGTC | -0.0507 |
| GACACTGC | -0.0909 |
| CCATAACC | -0.0883 |
| TCGTCGCA | -0.0153 |
| AACGAACT | -0.0164 |
| CGGAAAGA | 0.147 |
| GAGCTGCC | -0.194 |
| CCAAACTA | 0.0758 |
| TATTACAA | 0.209 |
| ATGCGGTA | -0.0315 |
| ACAACGAG | 0.056 |
| CCGTCTGC | -0.0489 |
| AGCCAAAT | -0.0362 |
| AAATGTCG | 0.0526 |
| AATCTCAT | 0.222 |
| CTAGGGGA | -0.239 |
| CAGTCACA | 0.0306 |
| CCTACGTA | -0.0652 |
| AAATGGCG | 0.0528 |
| CTGGATCA | -0.0291 |
| CGAATTCA | 0.0767 |
| AGCCAGGC | 0.00569 |
| TAGAACTA | -0.11 |
| CGGCAATA | 0.216 |
| CTGGGGGC | -0.381 |

| Sequence | PBM E-score |
| --- | --- |
| ACGATAGT | 0.132 |
| ATCGGTTG | 0.0834 |
| ATGAGGCG | -0.141 |
| AGCAACGG | 0.183 |
| TGATCACA | 0.054 |
| GGAGTTCA | -0.0205 |
| AGCAATGA | 0.0602 |
| AATTAACC | 0.124 |
| CTGGAAGC | -0.23 |
| CATAGAGC | -0.0525 |
| AATGCACC | -0.059 |
| AAAGCTAT | -0.0474 |
| ACCAGTAA | 0.131 |
| ACATTACA | 0.131 |
| AGCAACGC | -0.0123 |
| AAAGGCCA | -0.0877 |
| ATAAGAAT | 0.207 |
| ATACGACA | 0.0725 |
| GATCCATA | 0.00716 |
| ACTGACTC | 0.00686 |
| CCTCTTGC | -0.222 |
| GAGGTTCC | -0.116 |
| CTGGGTTA | -0.126 |
| CTGAGGTC | -0.227 |
| CAAGTGAC | 0.0478 |

| Sequence | PBM E-score |
| --- | --- |
| TGCTTGAA | 0.142 |
| ACCCGGTA | -0.0141 |
| GAACGCCA | -0.0877 |
| CATTGTGA | 0.145 |
| AACGACGG | 0.0326 |
| ACGGAGGA | -0.0158 |
| CCACATTA | 0.0768 |
| CGCGAGTA | 0.161 |
| CCTCGGGC | -0.209 |
| ATATGCGA | 0.154 |
| ATCTGCTG | -0.0569 |
| GCGAACAC | -0.0514 |
| CCTTGCAG | -0.283 |
| TAACTCAA | 0.0672 |
| AGGCGCTC | -0.205 |
| GATGACAA | 0.264 |
| AAACTGTG | 0.0327 |
| GGCCTCAC | -0.153 |
| CTCACCTC | 0.0325 |
| CTCCCCCA | -0.246 |
| CCAGGGGC | -0.383 |
| TGAATCCA | 0.12 |
| CTGAACCA | -0.0486 |
| CTTTCAGA | 0.0118 |
| AAGGCTGC | -0.215 |

Copied from the list:
Entry of TAACTCAA under PBM E-score: 0.0672
Entry of GCGAACAC under PBM E-score: -0.0514
Entry of TGAATCCA under PBM E-score: 0.12
Entry of TGCTTGAA under PBM E-score: 0.142

Continuation:

| Sequence | PBM E-score |
| --- | --- |
| TGCAGACA | -4e-05 |
| AAAAAGTC | 0.201 |
| AACGACAT | 0.202 |
| CAACGAGC | -0.147 |
| GTCCAAAA | 0.0341 |
| AATCGTGC | 0.205 |
| GACCATGA | -0.0328 |
| ACCAGACA | -0.146 |
| CTAGTCGA | 0.0352 |
| AGTAGTAT | 0.0776 |
| GGACGTAC | -0.167 |
| AACTTGAT | 0.15 |
| CGAGTCAG | -0.0965 |
| CTATACCA | 0.0585 |
| CAGCTGAG | -0.07 |
| CACTCCAG | -0.00573 |
| ACAGCAGC | -0.115 |
| AATGCCTA | 0.00894 |
| CGCCAATA | 0.109 |
| ACTTACCT | -0.028 |
| CGACGGCG | -0.0354 |
| CTAGGCGC | -0.0349 |
| TCATGGGA | 0.00531 |
| AGTGAGAC | -0.109 |
| GAAGTAAA | 0.176 |

| Sequence | PBM E-score |
| --- | --- |
| TAATAATA | 0.373 |
| CTATACAA | 0.189 |
| ATTGGTGC | 0.0296 |
| GCGGCGCA | -0.0776 |
| GAACAAGA | 0.198 |
| GGTCCGGA | -0.0474 |
| CGATGTTC | -0.131 |
| TAGGCTCA | -0.212 |
| CAGCACCA | -0.272 |
| GTTCTGAA | 0.11 |
| CGGAGCGC | -0.234 |
| AAATAGCC | -0.0263 |
| CAGATCCG | 0.0708 |
| CTTGGAAC | -0.0665 |
| GGCAGCAC | -0.196 |
| CACAACTG | -0.0612 |
| AAAGATGG | -0.0429 |
| GCGTTCTA | 0.0793 |
| CACGGTAC | -0.277 |
| CATTATCC | 0.211 |
| CCTGCACC | -0.217 |
| GAGCATGA | 0.0306 |
| GAAGTATA | 0.143 |
| GAGGAGCA | -0.106 |
| CGGGCGTA | -0.142 |

Another view of some results above:
Sequence,PBM E-score
ATTGGTGC,0.0296
GCGGCGCA,-0.0776
GAACAAGA,0.198
TAGGCTCA,-0.212
CACGGTAC,-0.277

Continued.

| Sequence | PBM E-score |
| --- | --- |
| CGGTCTAA | -0.0495 |
| TCTTGACA | 0.0157 |
| ACTAAGTG | -0.00977 |
| GCAAAGCC | -0.245 |
| AAAACTAG | 0.021 |
| CCAGAACA | -0.0243 |
| ATCGTTTC | 0.0597 |
| AACCTGGT | -0.0153 |
| ACACCCCT | -0.222 |
| ACCAGGAA | 0.0629 |
| ACTAGCCT | 0.0133 |
| CAGCTCAC | -0.155 |
| CTTTGTCC | -0.0016 |
| CAATCTGA | -0.0797 |
| CCCGCCCA | -0.041 |
| ACCAACAG | -0.102 |
| ACCCCGCC | -0.135 |
| CCGATCGG | -0.0203 |
| AATCCGCC | -0.123 |
| AAATGCTT | -0.018 |
| CTCCATGC | -0.144 |
| GTTCGGAA | 0.19 |
| GGCTAGGA | -0.191 |
| CCCCTTCA | -0.209 |
| ACGTTAGT | 0.174 |

| Sequence | PBM E-score |
| --- | --- |
| ATCCAGAT | -0.127 |
| TCAGCACA | 0.0431 |
| ACGGATGA | 0.035 |
| GGCAGACC | -0.334 |
| AGTGGCGC | 0.0259 |
| GCGTACCA | -0.0868 |
| CGTCAGAA | -0.204 |
| CTCTTTCA | 0.0223 |
| ACCTTCGT | -0.00074 |
| AGGGTGTG | -0.104 |
| GAGTCGGC | -0.14 |
| CAAACGTG | 0.0249 |
| AACGTCGA | 0.103 |
| GGCCGGAA | -0.139 |
| TAGCATAA | 0.0399 |
| CACAATAG | -0.0306 |
| ACGGTAGC | -0.0543 |
| CTCGCTTC | -0.0534 |
| CTACAACC | 0.00147 |
| GGCGCAGA | -0.045 |
| ACATATGG | 0.134 |
| ATCCCCCA | -0.24 |
